No constants are given. Whether binding was seen depends on the method and setting. Binding seen in cells or lysates may run through a third protein. These calls come from enrichment with a bait or labelling near it, and not all partners need be listed.

By UniProt entry, the sequences of proteins in these tests, tags left out.
UniProt P46937: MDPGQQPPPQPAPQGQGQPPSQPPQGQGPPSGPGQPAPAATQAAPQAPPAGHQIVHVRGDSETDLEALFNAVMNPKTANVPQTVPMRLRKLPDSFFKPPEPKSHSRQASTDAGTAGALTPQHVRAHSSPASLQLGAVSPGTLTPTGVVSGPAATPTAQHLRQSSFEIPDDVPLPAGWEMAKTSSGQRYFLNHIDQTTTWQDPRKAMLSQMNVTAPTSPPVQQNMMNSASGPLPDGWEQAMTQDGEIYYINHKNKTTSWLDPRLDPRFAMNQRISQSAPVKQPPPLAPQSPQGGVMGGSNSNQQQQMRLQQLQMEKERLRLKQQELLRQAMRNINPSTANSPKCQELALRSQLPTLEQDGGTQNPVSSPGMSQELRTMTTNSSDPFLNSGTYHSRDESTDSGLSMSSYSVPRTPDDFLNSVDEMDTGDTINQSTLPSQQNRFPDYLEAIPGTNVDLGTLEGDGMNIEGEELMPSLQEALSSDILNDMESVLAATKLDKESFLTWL
UniProt P15311: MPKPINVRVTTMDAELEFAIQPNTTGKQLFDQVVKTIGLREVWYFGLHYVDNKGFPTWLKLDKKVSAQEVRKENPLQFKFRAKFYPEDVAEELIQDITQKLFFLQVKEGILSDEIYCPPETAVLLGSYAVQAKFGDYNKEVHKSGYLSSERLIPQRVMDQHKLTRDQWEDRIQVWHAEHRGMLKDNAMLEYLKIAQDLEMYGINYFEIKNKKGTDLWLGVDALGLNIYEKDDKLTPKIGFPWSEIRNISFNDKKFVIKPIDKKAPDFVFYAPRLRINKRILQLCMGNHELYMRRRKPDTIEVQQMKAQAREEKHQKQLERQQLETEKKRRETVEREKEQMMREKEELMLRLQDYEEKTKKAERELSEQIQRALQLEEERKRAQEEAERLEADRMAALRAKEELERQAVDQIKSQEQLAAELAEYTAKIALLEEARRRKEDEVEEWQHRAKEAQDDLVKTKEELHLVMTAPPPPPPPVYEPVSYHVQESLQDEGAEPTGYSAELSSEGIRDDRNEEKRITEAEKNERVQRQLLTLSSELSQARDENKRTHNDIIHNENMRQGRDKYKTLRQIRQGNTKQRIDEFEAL

For this assay, the target named is Yes-associated protein (YAP) (human (endogenous in Caco-2)) (UniProt P46937). In words: affinity purification with mass spectrometry; co-IP from Caco-2 lysate (0.5% Triton X100 in PBS) on protein A/G magnetic beads; SDS-PAGE, Coomassie bands cut, LC-MS/MS; with and without oleic acid treatment of the cells.

For ezrin (from UniProt P15311 1-586), the binding entry is recorded as “binds”.

The values are drawn from PMC12607357.
